Laboratory results published in PubChem BioAssay AID256 (DTP/NCI, 2004).
The list is a part of this screen's results and no random one: it gathers some chemical classes. Not every dose and run of a compound is shown. T/C gives the treated animals as a percentage of the vehicle group. Some doses have a count of surviving animals in place of a T/C: the source holds a T/C of zero for them, seemingly a mark for toxic or unscored doses. Some doses without a T/C left all or most animals alive at the check, yet need not have been tolerated: survival well below the control is almost never listed, so the zero probably covers shortened survival too. Counts of survivors are from the toxicity check (mostly the fifth day) where no day follows; animals may have died later. Schedule codes are those of the source, read here as Q, the interval in days (D) or hours (H), X, the number of doses. Where survival is the endpoint, this PubChem deposit counts one and a half times the control or more as active, and values a quarter to a half above the control carry no call in these data; other NCI protocols may use other cut-offs. Some entries hold several experiments; the results are listed from low to high. Some entries show no survivor count and are marked so; the dose need not have been tolerated. Some T/C values carry the count of animals alive at the toxicity check (mostly the fifth day); without a count or a note in brackets, all were alive then.

Tested on: CD2F1 mice, L1210 leukemia ip, survival T/C
Assay: NCI In Vivo Anticancer Drug Screen. Data for tumor model L1210 Leukemia (intraperitoneal) in CD2F1 (CDF1) mice
Details: higher T/C = longer survival
Procedure, shortened: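 Antitumor effect is scored in animals hosting a serially transplanted tumor. Values compare compound-dosed animals against vehicle-only controls as a simple quotient.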

[1] = T/C endpoint: mean survival time, dose: 100.0 mg/kg/injection, schedule: Q04DX003 (ip), vehicle: saline with Tween-80

`Cc1cc([N+](=O)[O-])cc([N+](=O)[O-])c1` was tested, and the T/C (T/C endpoint: mean survival time, dose: 100.0 mg/kg/injection, schedule: Q04DX002 (ip), vehicle: Klucel (hydroxypropylcellulose) (HPC)) was 97 % of control [survivor count not shown], the T/C (T/C endpoint: mean survival time, dose: 200.0 mg/kg/injection, schedule: Q04DX002 (ip), vehicle: Klucel (hydroxypropylcellulose) (HPC)) was 105 % of control [survivor count not shown] and the T/C (T/C endpoint: mean survival time, dose: 400.0 mg/kg/injection, schedule: Q04DX002 (ip), vehicle: Klucel (hydroxypropylcellulose) (HPC)) was 90 % of control [survivor count not shown].

`O=CCC1CNP(=O)(N(CCCl)CCCl)O1` (stereo unspecified) was tested, and the T/C (T/C endpoint: mean survival time, dose: 15.62 mg/kg/injection, schedule: Q01DX001 (ip), vehicle: DMSO) was 97 % of control, the T/C (T/C endpoint: mean survival time, dose: 31.25 mg/kg/injection, schedule: Q01DX001 (ip), vehicle: DMSO) was 101 % of control and the T/C (T/C endpoint: mean survival time, dose: 62.5 mg/kg/injection, schedule: Q01DX001 (ip), vehicle: DMSO) was 97 % of control. For the same compound, the T/C (T/C endpoint: mean survival time, dose: 125.0 mg/kg/injection, schedule: Q01DX001 (ip), vehicle: DMSO) was 90 % of control, the T/C (T/C endpoint: mean survival time, dose: 250.0 mg/kg/injection, schedule: Q01DX001 (ip), vehicle: DMSO) was 87 % of control and the T/C (T/C endpoint: mean survival time, dose: 500.0 mg/kg/injection, schedule: Q01DX001 (ip), vehicle: DMSO) was 101 % of control.

For `COC(=O)c1ccccc1C[N+](C)(CCCl)CCCl`, the T/C (T/C endpoint: mean survival time, dose: 3.0 mg/kg/injection, schedule: Q01DX009 (ip), vehicle: saline sonified) was 106 % of control, the T/C (T/C endpoint: mean survival time, dose: 4.35 mg/kg/injection, schedule: Q01DX009 (ip), vehicle: saline) was 125 % of control and the T/C (T/C endpoint: mean survival time, dose: 4.4 mg/kg/injection, schedule: Q01DX009 (ip), vehicle: saline sonified) was 104 % of control. For the same compound, the T/C (T/C endpoint: mean survival time, dose: 6.6 mg/kg/injection, schedule: Q01DX009 (ip), vehicle: saline sonified) was 106 % of control and the T/C (T/C endpoint: mean survival time, dose: 15.0 mg/kg/injection, schedule: Q01DX009 (ip), vehicle: saline sonified) was 107 % of control.

In the case of `C[N+](C)(C)Cc1ccccc1.F[P-](F)(F)(F)(F)F`, the T/C (T/C endpoint: mean survival time, dose: 5.0 mg/kg/injection, schedule: Q01DX009 (ip), vehicle: saline with Tween-80) was 95 % of control, the T/C (T/C endpoint: mean survival time, dose: 5.0 mg/kg/injection, schedule: Q04DX003 (ip), vehicle: saline) was 94 % of control and the T/C (T/C endpoint: mean survival time, dose: 10.0 mg/kg/injection, schedule: Q01DX009 (ip), vehicle: saline with Tween-80) was 98 % of control. The T/C (T/C endpoint: mean survival time, dose: 10.0 mg/kg/injection, schedule: Q04DX003 (ip), vehicle: saline) was 94 % of control, the T/C (T/C endpoint: mean survival time, dose: 20.0 mg/kg/injection, schedule: Q01DX009 (ip), vehicle: saline with Tween-80) was 91 % of control and the T/C (T/C endpoint: mean survival time, dose: 20.0 mg/kg/injection, schedule: Q04DX003 (ip), vehicle: saline) was 94 % of control. The survivor count [1] was 0 of 6, the survivor count (T/C endpoint: mean survival time, dose: 200.0 mg/kg/injection, schedule: Q04DX003 (ip), vehicle: saline with Tween-80) was 0 of 6 and the survivor count (T/C endpoint: mean survival time, dose: 400.0 mg/kg/injection, schedule: Q04DX003 (ip), vehicle: saline with Tween-80) was 0 of 6.

`CC(C)(COP(=O)(OCC(C)(C)[N+](=O)[O-])OCC(C)(C)[N+](=O)[O-])[N+](=O)[O-]` was tested, and the T/C (T/C endpoint: mean survival time, dose: 50.0 mg/kg/injection, schedule: Q01DX009 (ip), vehicle: saline with Tween-80) was 96 % of control, the T/C (T/C endpoint: mean survival time, dose: 100.0 mg/kg/injection, schedule: Q01DX009 (ip), vehicle: saline with Tween-80) was 96 % of control and the T/C (T/C endpoint: mean survival time, dose: 200.0 mg/kg/injection, schedule: Q01DX009 (ip), vehicle: saline with Tween-80) was 100 % of control.

`O=C(OCCNCCCl)c1ccccc1` was tested, and the T/C (T/C endpoint: mean survival time, dose: 100.0 mg/kg/injection, schedule: Q01DX009 (ip), vehicle: saline) was 90 % of control, the T/C (T/C endpoint: mean survival time, dose: 100.0 mg/kg/injection, schedule: Q04DX003 (ip), vehicle: saline) was 103 % of control and the T/C (T/C endpoint: mean survival time, dose: 200.0 mg/kg/injection, schedule: Q01DX009 (ip), vehicle: saline) was 90 % of control. For the same compound, the T/C (T/C endpoint: mean survival time, dose: 200.0 mg/kg/injection, schedule: Q04DX003 (ip), vehicle: saline) was 97 % of control, the T/C (T/C endpoint: mean survival time, dose: 400.0 mg/kg/injection, schedule: Q01DX009 (ip), vehicle: saline) was 90 % of control and the T/C (T/C endpoint: mean survival time, dose: 400.0 mg/kg/injection, schedule: Q04DX003 (ip), vehicle: saline) was 97 % of control.

For `CCCCCCCCCCCCOP(=O)(O)CCC`, the T/C [1] was 94 % of control [survivor count not shown].

For `ClCCN(CCCl)c1cccc(CN2CCCCC2)c1.O=[N+]([O-])c1cc([N+](=O)[O-])c(O)c([N+](=O)[O-])c1`, the T/C (T/C endpoint: mean survival time, dose: 12.5 mg/kg/injection, schedule: Q01DX009 (ip), vehicle: Klucel (hydroxypropylcellulose) (HPC)) was 105 % of control, the T/C (T/C endpoint: mean survival time, dose: 25.0 mg/kg/injection, schedule: Q01DX009 (ip), vehicle: Klucel (hydroxypropylcellulose) (HPC)) was 107 % of control and the T/C (T/C endpoint: mean survival time, dose: 50.0 mg/kg/injection, schedule: Q01DX009 (ip), vehicle: Klucel (hydroxypropylcellulose) (HPC)) was 107 and 130 % of control. The T/C (T/C endpoint: mean survival time, dose: 100.0 mg/kg/injection, schedule: Q01DX009 (ip), vehicle: Klucel (hydroxypropylcellulose) (HPC)) was 109 % of control and the survivor count (T/C endpoint: mean survival time, dose: 200.0 mg/kg/injection, schedule: Q01DX009 (ip), vehicle: Klucel (hydroxypropylcellulose) (HPC)) was 3 of 3.

In the case of `Cc1ccc(Sc2ccc([N+](=O)[O-])cc2[N+](=O)[O-])c([N+](=O)[O-])c1`, the T/C (T/C endpoint: median survival time, dose: 12.5 mg/kg/injection, schedule: Q01DX009 (ip), vehicle: saline) was 98 % of control, the T/C (T/C endpoint: median survival time, dose: 25.0 mg/kg/injection, schedule: Q01DX009 (ip), vehicle: Klucel (hydroxypropylcellulose) (HPC)) was 116 % of control and the T/C (T/C endpoint: median survival time, dose: 25.0 mg/kg/injection, schedule: Q01DX009 (ip), vehicle: saline) was 102 % of control. The T/C (T/C endpoint: median survival time, dose: 50.0 mg/kg/injection, schedule: Q01DX009 (ip), vehicle: Klucel (hydroxypropylcellulose) (HPC)) was 103 % of control, the T/C (T/C endpoint: median survival time, dose: 50.0 mg/kg/injection, schedule: Q01DX009 (ip), vehicle: saline with Tween-80) was 108 % of control and the T/C (T/C endpoint: median survival time, dose: 50.0 mg/kg/injection, schedule: Q01DX009 (ip), vehicle: saline) was 98 % of control. The T/C (T/C endpoint: median survival time, dose: 100.0 mg/kg/injection, schedule: Q01DX009 (ip), vehicle: Klucel (hydroxypropylcellulose) (HPC)) was 112 % of control, the T/C (T/C endpoint: median survival time, dose: 100.0 mg/kg/injection, schedule: Q01DX009 (ip), vehicle: saline with Tween-80) was 106 % of control and the T/C (T/C endpoint: median survival time, dose: 100.0 mg/kg/injection, schedule: Q01DX009 (ip), vehicle: saline) was 104 % of control. The T/C (T/C endpoint: median survival time, dose: 200.0 mg/kg/injection, schedule: Q01DX009 (ip), vehicle: Klucel (hydroxypropylcellulose) (HPC)) was 103 % of control, the T/C (T/C endpoint: median survival time, dose: 200.0 mg/kg/injection, schedule: Q01DX009 (ip), vehicle: saline with Tween-80) was 102 % of control and the T/C (T/C endpoint: median survival time, dose: 200.0 mg/kg/injection, schedule: Q01DX009 (ip), vehicle: saline) was 98 % of control. The T/C (T/C endpoint: median survival time, dose: 400.0 mg/kg/injection, schedule: Q01DX009 (ip), vehicle: Klucel (hydroxypropylcellulose) (HPC)) was 111 % of control, the T/C (T/C endpoint: median survival time, dose: 400.0 mg/kg/injection, schedule: Q01DX009 (ip), vehicle: saline with Tween-80) was 100 % of control and the T/C (T/C endpoint: median survival time, dose: 400.0 mg/kg/injection, schedule: Q01DX009 (ip), vehicle: saline) was 102 % of control. For the same compound, the T/C (T/C endpoint: median survival time, dose: 800.0 mg/kg/injection, schedule: Q01DX009 (ip), vehicle: Klucel (hydroxypropylcellulose) (HPC)) was 108 % of control [4 of 6 alive] and the T/C (T/C endpoint: median survival time, dose: 800.0 mg/kg/injection, schedule: Q01DX009 (ip), vehicle: saline with Tween-80) was 107 % of control.

In the case of `O=[N+]([O-])C/C(=N\Nc1ccc([N+](=O)[O-])cc1[N+](=O)[O-])c1ccccc1`, the T/C (T/C endpoint: mean survival time, dose: 100.0 mg/kg/injection, schedule: Q04DX003 (ip), vehicle: saline sonified) was 97 % of control, the T/C (T/C endpoint: mean survival time, dose: 200.0 mg/kg/injection, schedule: Q04DX003 (ip), vehicle: saline sonified) was 106 % of control and the T/C (T/C endpoint: mean survival time, dose: 400.0 mg/kg/injection, schedule: Q04DX003 (ip), vehicle: saline sonified) was 96 % of control.

`CCN(CCCl)c1ccc(CCN)cc1` was tested, and the T/C (T/C endpoint: mean survival time, dose: 2.5 mg/kg/injection, schedule: Q01DX001 (ip), vehicle: saline) was 107 % of control, the T/C (T/C endpoint: mean survival time, dose: 5.0 mg/kg/injection, schedule: Q01DX001 (ip), vehicle: saline) was 102 % of control and the T/C (T/C endpoint: mean survival time, dose: 10.0 mg/kg/injection, schedule: Q01DX001 (ip), vehicle: saline) was 105 and 108 % of control. The survivor count (T/C endpoint: mean survival time, dose: 20.0 mg/kg/injection, schedule: Q01DX001 (ip), vehicle: saline) was 3 of 6, the survivor count (T/C endpoint: mean survival time, dose: 40.0 mg/kg/injection, schedule: Q01DX001 (ip), vehicle: saline) was 0 of 6 and the survivor count (T/C endpoint: mean survival time, dose: 100.0 mg/kg/injection, schedule: Q01DX001 (ip), vehicle: saline) was 0 of 6. For the same compound, the survivor count (T/C endpoint: mean survival time, dose: 200.0 mg/kg/injection, schedule: Q01DX001 (ip), vehicle: saline) was 0 of 6 and the survivor count (T/C endpoint: mean survival time, dose: 400.0 mg/kg/injection, schedule: Q01DX001 (ip), vehicle: saline) was 0 of 6.
